Assay [1] has as its target T1, GST-tagged wild-type EBP50 (bovine) (UniProt Q3SZK8).
T1 sequence: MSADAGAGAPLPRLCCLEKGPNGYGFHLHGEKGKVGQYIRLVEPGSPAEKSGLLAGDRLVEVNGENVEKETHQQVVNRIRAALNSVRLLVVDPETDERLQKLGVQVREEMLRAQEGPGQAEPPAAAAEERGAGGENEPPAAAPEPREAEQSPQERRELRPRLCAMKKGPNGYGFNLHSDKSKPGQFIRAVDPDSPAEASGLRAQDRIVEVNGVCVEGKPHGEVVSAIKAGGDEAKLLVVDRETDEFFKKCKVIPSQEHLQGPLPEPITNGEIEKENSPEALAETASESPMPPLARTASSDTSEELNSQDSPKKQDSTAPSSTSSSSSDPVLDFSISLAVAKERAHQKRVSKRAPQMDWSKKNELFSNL
Put plainly: pull-down; GST-EBP50 (or GST) coupled to glutathione Sepharose incubated with BPAEC lysate for 2 h at 4°C; washed with PBS, eluted with 10 mM glutathione; Western blot with PP2A A, B, B′ or C specific antibodies; only the target purified. On the technique in general: In western blotting, separated proteins are transferred to a membrane and probed.

Sequences of proteins named here, by UniProt entry; tags and fusion partners are left off. A change or cut given only in a name is not applied to a line headed by its entry.
UniProt P67774: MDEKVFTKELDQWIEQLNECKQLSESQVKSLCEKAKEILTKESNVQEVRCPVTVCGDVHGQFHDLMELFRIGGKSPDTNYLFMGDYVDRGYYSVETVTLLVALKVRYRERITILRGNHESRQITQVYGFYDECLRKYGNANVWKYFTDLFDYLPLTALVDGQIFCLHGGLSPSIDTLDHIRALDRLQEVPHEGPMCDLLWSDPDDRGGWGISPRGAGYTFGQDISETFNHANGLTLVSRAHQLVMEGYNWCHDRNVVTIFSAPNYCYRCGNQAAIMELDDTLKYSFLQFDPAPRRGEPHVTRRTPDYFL

The target of assay [2] is T2, Ezrin-radixin-moesin (ERM)-binding phosphoprotein 50 (EBP50), endogenous in BPAEC (bovine (endogenous in BPAEC)) (UniProt Q3SZK8).
T2 sequence: T1 sequence
Put plainly: co-IP; endogenous EBP50 immunoprecipitated with anti-EBP50 antibody and protein G Sepharose from lysates of asynchronized, thymidine (early S) or nocodazole (mitotic) treated BPAEC; IP buffer 20 mM Tris HCl pH 7.4, 150 mM NaCl, 2 mM EDTA, 2 mM sodium vanadate, 1% Nonidet P-40, 4°C; Western blot for phosphatase subunits.

Assay [3] addresses Protein phosphatase 2A C subunit (PP2Ac), endogenous in BPAEC (bovine (endogenous in BPAEC)) (UniProt P67774). Put plainly: co-IP; endogenous PP2A C subunit immunoprecipitated with anti-PP2Ac antibody and protein G Sepharose from lysates of thymidine or nocodazole treated BPAEC; same IP buffer, 4°C; Western blot for EBP50.

These are yes or no findings as the source states them, for the method shown. In cells and extracts the contact can be indirect. Binding calls can cover weak binding; strength is not graded here. For part of these data: Where a sequence is shown, tags or fusion partners need not be part of it.

For “Protein phosphatase 2A C subunit (PP2Ac), endogenous in BPAEC (from UniProt P67774) (enzyme)”, the binding entry in assay [1] and in assay [2] was “binds” in each case. Consider “Protein phosphatase 2A B′ subunit, endogenous in BPAEC (bovine (endogenous in BPAEC))”, for which the binding entry in assay [1] is given as “no binding”. As for “Protein phosphatase 2A A subunit (PP2Aa), endogenous in BPAEC (bovine (endogenous in BPAEC))”, the binding entry in assay [1] and in assay [2] was “binds” throughout.

B1: Ezrin-radixin-moesin (ERM)-binding phosphoprotein 50 (EBP50), endogenous in BPAEC (protein, UniProt Q3SZK8 1-368)
chain: T1 sequence
Regarding B1, the binding entry in assay [3] is listed as “binds”.

The record behind these values is paper PMC3327649.
